Source: paper PMC4230841
No constants are given. Whether binding was seen depends on the method and setting. In cells and extracts the contact can be indirect. Some entries that bind do so weakly or less than the wild type. Tags and fused reporters may be left off the sequences shown.

Amino acid sequences for entries named in this document (tags omitted).
UniProt Q9XZ58: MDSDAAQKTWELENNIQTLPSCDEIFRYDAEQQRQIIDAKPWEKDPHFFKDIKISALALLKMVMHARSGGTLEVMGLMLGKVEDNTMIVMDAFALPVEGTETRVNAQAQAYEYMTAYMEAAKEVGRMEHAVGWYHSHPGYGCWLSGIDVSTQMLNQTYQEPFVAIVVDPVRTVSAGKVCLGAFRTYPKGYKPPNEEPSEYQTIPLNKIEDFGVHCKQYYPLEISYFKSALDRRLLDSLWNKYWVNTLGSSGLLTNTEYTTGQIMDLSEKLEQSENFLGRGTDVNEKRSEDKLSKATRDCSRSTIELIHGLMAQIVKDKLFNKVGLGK
UniProt Q9V345: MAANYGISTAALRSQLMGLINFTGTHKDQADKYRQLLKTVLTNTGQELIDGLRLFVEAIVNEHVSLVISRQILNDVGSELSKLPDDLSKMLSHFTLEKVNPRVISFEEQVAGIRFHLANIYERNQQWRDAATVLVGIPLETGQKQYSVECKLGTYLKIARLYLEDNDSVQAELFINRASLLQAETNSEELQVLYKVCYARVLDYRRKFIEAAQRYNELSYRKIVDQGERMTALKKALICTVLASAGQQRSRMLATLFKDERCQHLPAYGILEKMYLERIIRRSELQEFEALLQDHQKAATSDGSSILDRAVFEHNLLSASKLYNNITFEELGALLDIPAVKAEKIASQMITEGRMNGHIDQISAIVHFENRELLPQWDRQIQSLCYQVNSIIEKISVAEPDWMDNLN
UniProt Q94899: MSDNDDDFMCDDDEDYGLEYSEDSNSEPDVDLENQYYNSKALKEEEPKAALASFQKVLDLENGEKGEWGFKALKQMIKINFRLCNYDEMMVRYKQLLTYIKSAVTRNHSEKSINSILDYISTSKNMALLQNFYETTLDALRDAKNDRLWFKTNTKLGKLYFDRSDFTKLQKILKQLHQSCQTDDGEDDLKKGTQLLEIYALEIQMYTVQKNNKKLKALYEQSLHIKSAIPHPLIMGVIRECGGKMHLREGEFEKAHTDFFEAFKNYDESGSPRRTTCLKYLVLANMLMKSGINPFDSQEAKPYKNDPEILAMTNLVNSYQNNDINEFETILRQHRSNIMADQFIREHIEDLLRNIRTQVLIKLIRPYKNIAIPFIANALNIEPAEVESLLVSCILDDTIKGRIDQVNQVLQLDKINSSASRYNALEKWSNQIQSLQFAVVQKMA

What was measured:
Assay in all cases: co-IP; S2 cells co-transfected with one Flag-tagged protein and Myc-tagged EcRA or EcRB1; lysed in mRIPA buffer (50 mM Tris-HCl pH 7.8, 150 mM NaCl, 5 mM EDTA, 0.5% Triton X-100, 0.5% NP-40); ANTI-FLAG M2 Affinity Gel overnight at 4°C; western blot with anti-Flag and anti-c-Myc
[1] = target: Flag-tagged CSN5 (Drosophila) (UniProt Q9XZ58)
[2] = target: Flag-tagged CSN4 (Drosophila) (UniProt Q9V345)
[3] = target: T1, Flag-USP (Drosophila) (UniProt P20153)
T1 sequence: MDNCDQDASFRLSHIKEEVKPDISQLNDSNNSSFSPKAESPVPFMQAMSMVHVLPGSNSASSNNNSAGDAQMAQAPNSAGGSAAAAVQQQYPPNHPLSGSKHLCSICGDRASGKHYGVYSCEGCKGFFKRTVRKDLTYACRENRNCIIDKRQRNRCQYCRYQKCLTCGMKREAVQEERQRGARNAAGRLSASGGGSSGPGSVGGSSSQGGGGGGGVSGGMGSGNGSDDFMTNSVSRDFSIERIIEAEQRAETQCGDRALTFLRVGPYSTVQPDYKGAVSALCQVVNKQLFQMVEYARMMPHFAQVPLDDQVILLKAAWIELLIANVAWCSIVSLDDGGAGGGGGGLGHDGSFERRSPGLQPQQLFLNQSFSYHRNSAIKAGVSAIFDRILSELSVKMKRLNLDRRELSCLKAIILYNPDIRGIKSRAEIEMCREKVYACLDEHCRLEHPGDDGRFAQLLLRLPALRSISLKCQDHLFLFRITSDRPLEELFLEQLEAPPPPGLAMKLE

[4] = target: Flag-tagged CSN2 (Drosophila) (UniProt Q94899)

Measured: binding

B1: Myc-tagged EcRA (receptor, UniProt P34021-2 1-849)
chain: MLTTSGQQQSKQKLSTLPSHILLQQQLAASAGPSSSVSLSPSSSAALTLHVASANGGARETTSAAAVKDKLRPTPTAIKIEPMPDVISVGTVAGGSSVATVVAPAATTTSNKPNSTAAPSTSAAAANGHLVLVPNKRPRLDVTEDWMSTPSPGSVPSSAPPLSPSPGSQNHSYNMSNGYASPMSAGSYDPYSPTGKTGRDDLSPSSSLNGYSANESCDAKKSKKGPAPRVQEELCLVCGDRASGYHYNALTCEGCKGFFRRSVTKSAVYCCKFGRACEMDMYMRRKCQECRLKKCLAVGMRPECVVPENQCAMKRREKKAQKEKDKMTTSPSSQHGGNGSLASGGGQDFVKKEILDLMTCEPPQHATIPLLPDEILAKCQARNIPSLTYNQLAVIYKLIWYQDGYEQPSEEDLRRIMSQPDENESQTDVSFRHITEITILTVQLIVEFAKGLPAFTKIPQEDQITLLKACSSEVMMLRMARRYDHSSDSIFFANNRSYTRDSYKMAGMADNIEDLLHFCRQMFSMKVDNVEYALLTAIVIFSDRPGLEKAQLVEAIQSYYIDTLRIYILNRHCGDSMSLVFYAKLLSILTELRTLGNQNAEMCFSLKLKNRKLPKFLEEIWDVHAIPPSVQSHLQITQEENERLERAERMRASVGGAITAGIDCDSASTSAAAAAAQHQPQPQPQPQPSSLTQNDSQHQTQPQLQPQLPPQLQGQLQPQLQPQLQTQLQPQIQPQPQLLPVSAPVPASVTAPGSLSAVSTSSEYMGGSAAIGPITPATTSSITAAVTASSTTSAVPMGNGVGVGVGVGGNVSMYANAQTAMALMGVALHSHQEQLIGGVAVKSEHSTTA
binds: all assays above

B2: Myc-tagged EcRB1 (receptor, UniProt P34021-1 1-878)
chain: MKRRWSNNGGFMRLPEESSSEVTSSSNGLVLPSGVNMSPSSLDSHDYCDQDLWLCGNESGSFGGSNGHGLSQQQQSVITLAMHGCSSTLPAQTTIIPINGNANGNGGSTNGQYVPGATNLGALANGMLNGGFNGMQQQIQNGHGLINSTTPSTPTTPLHLQQNLGGAGGGGIGGMGILHHANGTPNGLIGVVGGGGGVGLGVGGGGVGGLGMQHTPRSDSVNSISSGRDDLSPSSSLNGYSANESCDAKKSKKGPAPRVQEELCLVCGDRASGYHYNALTCEGCKGFFRRSVTKSAVYCCKFGRACEMDMYMRRKCQECRLKKCLAVGMRPECVVPENQCAMKRREKKAQKEKDKMTTSPSSQHGGNGSLASGGGQDFVKKEILDLMTCEPPQHATIPLLPDEILAKCQARNIPSLTYNQLAVIYKLIWYQDGYEQPSEEDLRRIMSQPDENESQTDVSFRHITEITILTVQLIVEFAKGLPAFTKIPQEDQITLLKACSSEVMMLRMARRYDHSSDSIFFANNRSYTRDSYKMAGMADNIEDLLHFCRQMFSMKVDNVEYALLTAIVIFSDRPGLEKAQLVEAIQSYYIDTLRIYILNRHCGDSMSLVFYAKLLSILTELRTLGNQNAEMCFSLKLKNRKLPKFLEEIWDVHAIPPSVQSHLQITQEENERLERAERMRASVGGAITAGIDCDSASTSAAAAAAQHQPQPQPQPQPSSLTQNDSQHQTQPQLQPQLPPQLQGQLQPQLQPQLQTQLQPQIQPQPQLLPVSAPVPASVTAPGSLSAVSTSSEYMGGSAAIGPITPATTSSITAAVTASSTTSAVPMGNGVGVGVGVGGNVSMYANAQTAMALMGVALHSHQEQLIGGVAVKSEHSTTA
binds: all assays above
